This is a selection; strong and weak results do not stand in their true shares. At the low end of the ranking the order means little.
Target: SPI1 (UniProt P17947)
Assay: DAPPL (digital affinity profiling via proximity ligation, sequencing)
Settings: 10 mM Tris-HCl pH 7.5, 50 mM NaCl, 1 mM DTT, 4% glycerol, room temperature, 30 min; GST-TFs on glutathione beads, 16-mer random dsDNA library, 0.1% …; high values mean tight binding; double strand, one strand shown; scale: fold enrichment (6-mer frequency, TF over GST control)

Sequence | binding signal
GGTAGA | 0.615
TGGAGT | 0.498
GCGCGA | 0.728
GGGATA | 0.736
AGAGAC | 0.499
GAGCGT | 0.318
CAGACA | 0.766
CGCAGC | 0.77
AGGAGA | 0.21
GGGGCC | 0.553
GAGCCA | 0.589
GGAAAG | 0.864
GTAGAG | 0.578
GGGTAA | 0.819
CAGGGT | 0.812
CGTGTA | 0.624
TGTGGG | 0.795
CCCGAG | 0.757
TAGGGG | 0.849
GACTAG | 0.733

Already shown: entries from further up.
Sequence | binding signal
CAGACA | 0.766
CGCAGC | 0.77
AGGAGA | 0.21
GGGGCC | 0.553
GAGCCA | 0.589
GGAAAG | 0.864
GTAGAG | 0.578
GGGTAA | 0.819
CAGGGT | 0.812
CGTGTA | 0.624

Continuation:

Sequence | binding signal
GCCAAG | 0.828
TGAGAT | 0.65
CCAGTT | 0.693
CGAGTG | 0.749
GTAAGT | 0.717
CGGGTT | 0.851
CAGCGA | 0.805
TGAGAC | 0.518
GGCTGG | 0.759
GGTCAT | 0.801
AAAGGA | 0.882
GAGAAC | 0.391
GTCAGG | 0.528
AGGTTA | 0.726
AAGTCG | 0.543
GAGTGT | 0.545
GTCGTG | 0.383
ACAGTG | 0.499
CCATGA | 0.857
TGGGGA | 0.957
